# Data source: PubChem BioAssay AID1259425 (University of Nebraska Medical Center, 2018)
# Assay: 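Find knockdowns that reproduce the gene expression pattern seen when KSR1 is lost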 (primary screen)
# System: HCT116 human colon cancer cells
# Reagent: siRNA pool against human genes, 50 nM siRNA
# Detection: 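After 50 nM siRNA pool, branched-DNA assay measures six marker transcripts per well, minus blank, normalised to the geometric mean of two housekeeping transcripts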
# Direction: BNIP3L mRNA: higher = more BNIP3L transcript after knockdown; NDRG1 mRNA: higher = more NDRG1 transcript after knockdown; BNIP3 mRNA: higher = more BNIP3 transcript after knockdown; ALDOC mRNA: higher = more ALDOC transcript after knockdown; ACSL5 mRNA: higher = more ACSL5 transcript after knockdown
# The whole screen tested about 14,000 reagents; this is a random part of them. The record does not give: the time to read-out.
"BNIP3L mRNA, set 1","NDRG1 mRNA, set 1","BNIP3 mRNA, set 1","ALDOC mRNA, set 1","ACSL5 mRNA, set 1",Target gene,PubChem SID
0.148,0.0336,0.472,0.0636,0.198,COQ8A (GeneID 56997),SID364001592
0.118,0.309,0.262,0.0322,0.158,DCTPP1 (GeneID 79077),SID364002745
0.156,0.564,0.386,0.0166,0.351,RRP15 (GeneID 51018),SID363999827
0.353,0.663,1.1,0.125,0.309,SHISAL1 (GeneID 85352),SID364005559
0.182,0.152,0.326,0.0525,0.147,PGM3 (GeneID 5238),SID363999594
0.144,0.247,0.305,0.0324,0.215,LNPK (GeneID 80856),SID364003393
0.159,0.113,0.574,0.0416,0.12,ZKSCAN7 (GeneID 55888),SID364001150
0.343,0.502,0.542,0.0187,0.404,ITIH5 (GeneID 80760),SID364003361
0.287,0.323,0.398,0.0383,0.296,ITIH5 (GeneID 80760),SID364004197
0.25,0.11,0.356,0.0778,0.393,FAM204A (GeneID 63877),SID364002299
0.148,0.0527,0.415,0.00153,0.0965,RAF1 (GeneID 5894),SID363994036
0.817,1.64,1.65,0.238,0.113,PARP16 (GeneID 54956),SID364000582
0.144,0.522,0.331,0.0219,0.0997,DHTKD1 (GeneID 55526),SID364001194
0.0869,0.0893,0.419,0.00506,0.142,CDC42BPB (GeneID 9578),SID363996886
0.098,0.089,0.293,0.0125,0.0553,VLDLR (GeneID 7436),SID363994495
0.0943,0.27,0.287,0.0249,0.167,OR2A5 (GeneID 393046),SID363998261
0.116,0.148,0.348,0.0434,0.191,PRC1 (GeneID 9055),SID363995034
0.0861,0.11,0.404,0.0146,0.23,CDK11B (GeneID 984),SID363993006
0.0296,0.174,0.255,0.0111,0.172,CLCN1 (GeneID 1180),SID363991420
0.102,0.196,0.368,0.033,0.205,CHL1 (GeneID 10752),SID363997404
0.0787,0.254,0.277,0.00877,0.19,GCNT4 (GeneID 51301),SID364000220
0.0808,0.152,0.227,0.0398,0.284,CCT7 (GeneID 10574),SID363997240
0.11,0.102,0.191,0.0245,0.126,ARL8B (GeneID 55207),SID364000855
0.0834,0.285,0.249,0.0298,0.168,AEBP1 (GeneID 165),SID363992422
0.125,0.414,0.229,0.0202,0.178,BCAN (GeneID 63827),SID364002239
0.121,0.126,0.354,0.0178,0.154,SIX1 (GeneID 6495),SID363996838
0.134,0.255,0.397,0.0121,0.2,SFTPD (GeneID 6441),SID363994168
0.0704,0.296,0.291,0.0142,0.26,ROPN1L (GeneID 83853),SID364003695
0.0366,0.0825,0.255,0.00585,0.138,TLR7 (GeneID 51284),SID364000196
0.0763,0.15,0.201,0.0163,0.276,FECH (GeneID 2235),SID363991476
0.129,0.239,0.299,0.0139,0.286,KCNK4 (GeneID 50801),SID364000235
0.117,0.678,0.35,0.0814,0.442,CFHR5 (GeneID 81494),SID364003439
0.0669,0.189,0.198,0.0374,0.12,ADCY5 (GeneID 111),SID364004967
0.093,0.113,0.279,0.0292,0.0884,KRT6B (GeneID 3854),SID363996455
0.0579,0.11,0.244,0.00429,0.122,BIN2 (GeneID 51411),SID363999936
0.0778,0.0812,0.287,0.0333,0.162,CD8B (GeneID 926),SID363995875
0.0808,0.0626,0.204,0.0288,0.0825,FABP1 (GeneID 2168),SID363992705
0.139,0.108,0.335,0.0525,0.156,ESX1 (GeneID 80712),SID364004775
0.0934,0.246,0.262,0.0208,0.146,ERRFI1 (GeneID 54206),SID364001275
0.346,0.899,0.114,0.0745,0.258,CACNB3 (GeneID 784),SID363992022
0.0501,0.061,0.201,0.0538,0.105,CHPT1 (GeneID 56994),SID364001589
0.074,0.261,0.25,0.0155,0.083,PI3 (GeneID 5266),SID363993806
0.142,0.255,0.479,0.0422,0.181,VPS41 (GeneID 27072),SID363998818
0.102,0.18,0.235,0.017,0.202,RRP9 (GeneID 9136),SID363995663
0.0796,0.15,0.271,0.0159,0.126,TRIP4 (GeneID 9325),SID363999953
0.404,0.679,0.933,0.16,0.562,UTP3 (GeneID 57050),SID364001636
0.0918,0.238,0.279,0.0182,0.145,UNC119 (GeneID 9094),SID363996078
0.157,0.495,0.314,0.0303,0.233,ELL3 (GeneID 80237),SID364003290
0.238,0.976,0.442,0.0201,0.105,MAP2 (GeneID 4133),SID363993554
0.101,0.529,0.253,0.0461,0.0785,UNC13B (GeneID 10497),SID363997192
